Data on one molecule can be found in PMC5855860.

By UniProt entry, the sequences of proteins in these tests, tags left out. Where a name states a change or a piece, a line headed by the entry shows the natural chain unless it says otherwise.
UniProt Q9SUR3: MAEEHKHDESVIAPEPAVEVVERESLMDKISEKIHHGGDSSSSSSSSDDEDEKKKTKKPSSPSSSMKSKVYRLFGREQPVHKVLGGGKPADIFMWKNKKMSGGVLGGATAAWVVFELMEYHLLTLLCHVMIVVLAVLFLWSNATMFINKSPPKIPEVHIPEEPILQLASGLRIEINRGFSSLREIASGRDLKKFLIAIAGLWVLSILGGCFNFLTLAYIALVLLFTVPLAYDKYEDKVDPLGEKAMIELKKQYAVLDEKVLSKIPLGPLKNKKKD

The target of the assay is GST-RTNLB1 fusion protein (Arabidopsis thaliana) (UniProt Q9SUR3). Description: pull-down; GST fusion or GST only on glutathione-sepharose beads, incubated with T7-tagged proteins from E. coli; bound proteins eluted with glutathione; blot with anti-T7 tag and anti-GST antibodies.

These are yes or no findings as the source states them, for the method shown. Binding seen in cells or lysates may run through a third protein. Where a sequence is shown, tags or fusion partners need not be part of it.

B1: T7-tagged-RTNLB8 protein (protein, UniProt Q9SS37 1-247)
chain: MPDKNIVEDVIGDLVDNFTETVQKNKHGSSFFEQEDSVSSRFNRLFDRQKPIHHVLGGGKSADVLLWRNKKISASVLMGATAIWVLFEWINFHFLSLVCYALLLGMIAQFVWSNASGFLNRSQSRVPRLVLPKDFFAEVGVAVGKEVNRGLLFLQDLACKGNLKQFLMAVIGLWVAAMVGSCCNFLTVLYIGFVGAHTMPVLYERYEDEVDGFMDSMIMKFHSHYKKLDTGFLSRIPSGKFGLKKRE
As for B1, the binding result is reported as “no binding”.
